In article PMC8897425 one finds binding data, which are given here for two substances.

The chains behind the UniProt entries cited, without tags or fusion partners.
UniProt Q8N6T7: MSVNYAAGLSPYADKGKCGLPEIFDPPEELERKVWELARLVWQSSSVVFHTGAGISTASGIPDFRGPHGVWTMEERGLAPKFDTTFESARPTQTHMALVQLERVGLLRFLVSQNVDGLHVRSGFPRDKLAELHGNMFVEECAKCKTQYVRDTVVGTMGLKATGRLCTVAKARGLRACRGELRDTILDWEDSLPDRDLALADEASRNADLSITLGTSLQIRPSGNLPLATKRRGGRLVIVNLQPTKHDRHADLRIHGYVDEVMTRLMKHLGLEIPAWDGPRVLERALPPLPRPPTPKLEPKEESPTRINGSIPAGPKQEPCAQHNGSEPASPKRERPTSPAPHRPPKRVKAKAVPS

Experiment [1] deals with T1, endogenous MRTF-A (human (endogenous in EAhy926 and HAEC)) (UniProt Q969V6).
T1 sequence: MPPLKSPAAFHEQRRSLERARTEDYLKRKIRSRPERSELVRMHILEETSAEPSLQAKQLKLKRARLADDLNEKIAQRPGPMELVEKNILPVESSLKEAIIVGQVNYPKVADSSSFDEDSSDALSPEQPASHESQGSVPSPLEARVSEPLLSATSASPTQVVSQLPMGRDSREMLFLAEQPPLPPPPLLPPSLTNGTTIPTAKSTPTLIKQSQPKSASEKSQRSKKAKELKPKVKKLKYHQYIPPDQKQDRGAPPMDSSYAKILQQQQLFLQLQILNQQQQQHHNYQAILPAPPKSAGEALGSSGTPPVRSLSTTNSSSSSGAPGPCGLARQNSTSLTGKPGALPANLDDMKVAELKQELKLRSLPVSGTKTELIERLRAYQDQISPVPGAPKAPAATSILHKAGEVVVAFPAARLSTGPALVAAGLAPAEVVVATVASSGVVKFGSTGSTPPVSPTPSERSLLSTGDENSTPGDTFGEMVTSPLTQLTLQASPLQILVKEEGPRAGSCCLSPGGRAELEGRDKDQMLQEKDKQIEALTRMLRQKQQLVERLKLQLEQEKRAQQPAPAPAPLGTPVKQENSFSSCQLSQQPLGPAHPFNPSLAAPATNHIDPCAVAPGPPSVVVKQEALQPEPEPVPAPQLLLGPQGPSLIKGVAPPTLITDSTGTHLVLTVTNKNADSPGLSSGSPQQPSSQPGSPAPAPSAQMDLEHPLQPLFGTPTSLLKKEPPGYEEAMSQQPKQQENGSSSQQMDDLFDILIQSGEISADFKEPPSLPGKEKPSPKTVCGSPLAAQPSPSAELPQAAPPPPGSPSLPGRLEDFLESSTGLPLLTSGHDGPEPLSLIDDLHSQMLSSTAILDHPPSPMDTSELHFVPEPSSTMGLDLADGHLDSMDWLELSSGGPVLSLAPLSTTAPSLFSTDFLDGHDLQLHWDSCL
In words: co-IP; endogenous proteins in EAhy926 and HAEC cell lysates; lysates incubated with specific antibodies at 4 °C overnight, Protein A/G-plus agarose beads, Western blot.

Experiment [2] deals with T2, FLAG-tagged myocardin-related transcription factor A (MRTF-A) (UniProt Q969V6).
T2 sequence: T1 sequence
In words: co-IP; HEK293 cells transfected with FLAG-MRTF-A and Myc-SIRT6; whole-cell lysates (50 mM Tris pH 7.4, 150 mM NaCl, 1% Triton X-100); immunoprecipitation with anti-FLAG (M2) beads overnight, elution with 3X FLAG peptide, Western blot. Background: A western blot detects proteins with antibodies after separation by electrophoresis.

Results are given in words; binding and its absence hold for the method and conditions named. Binding seen in cells or lysates may run through a third protein. Some entries that bind do so weakly or less than the wild type. For some assays here: Where a sequence is shown, tags or fusion partners need not be part of it.

“endogenous SIRT6 (from UniProt Q8N6T7 1-355) (enzyme)”: the binding result in experiment [1] was “binds”.

As to “Myc-tagged SIRT6 (from UniProt Q8N6T7 1-355) (enzyme)”, in experiment [2], the binding result is listed as “binds”.
